No constants are given. Whether binding was seen depends on the method and setting. In cells and extracts the contact can be indirect. Some entries that bind do so weakly or less than the wild type. Sequences can lack the tags named with a protein.
Molecular target: C-terminal Myc-FLAG tagged PRR14L (human), Q5THK1
Assay: co-IP
Conditions: remark: other sources report otherwise

By UniProt entry, the sequences of proteins in these tests, tags left out.
UniProt Q5THK1, whole entry: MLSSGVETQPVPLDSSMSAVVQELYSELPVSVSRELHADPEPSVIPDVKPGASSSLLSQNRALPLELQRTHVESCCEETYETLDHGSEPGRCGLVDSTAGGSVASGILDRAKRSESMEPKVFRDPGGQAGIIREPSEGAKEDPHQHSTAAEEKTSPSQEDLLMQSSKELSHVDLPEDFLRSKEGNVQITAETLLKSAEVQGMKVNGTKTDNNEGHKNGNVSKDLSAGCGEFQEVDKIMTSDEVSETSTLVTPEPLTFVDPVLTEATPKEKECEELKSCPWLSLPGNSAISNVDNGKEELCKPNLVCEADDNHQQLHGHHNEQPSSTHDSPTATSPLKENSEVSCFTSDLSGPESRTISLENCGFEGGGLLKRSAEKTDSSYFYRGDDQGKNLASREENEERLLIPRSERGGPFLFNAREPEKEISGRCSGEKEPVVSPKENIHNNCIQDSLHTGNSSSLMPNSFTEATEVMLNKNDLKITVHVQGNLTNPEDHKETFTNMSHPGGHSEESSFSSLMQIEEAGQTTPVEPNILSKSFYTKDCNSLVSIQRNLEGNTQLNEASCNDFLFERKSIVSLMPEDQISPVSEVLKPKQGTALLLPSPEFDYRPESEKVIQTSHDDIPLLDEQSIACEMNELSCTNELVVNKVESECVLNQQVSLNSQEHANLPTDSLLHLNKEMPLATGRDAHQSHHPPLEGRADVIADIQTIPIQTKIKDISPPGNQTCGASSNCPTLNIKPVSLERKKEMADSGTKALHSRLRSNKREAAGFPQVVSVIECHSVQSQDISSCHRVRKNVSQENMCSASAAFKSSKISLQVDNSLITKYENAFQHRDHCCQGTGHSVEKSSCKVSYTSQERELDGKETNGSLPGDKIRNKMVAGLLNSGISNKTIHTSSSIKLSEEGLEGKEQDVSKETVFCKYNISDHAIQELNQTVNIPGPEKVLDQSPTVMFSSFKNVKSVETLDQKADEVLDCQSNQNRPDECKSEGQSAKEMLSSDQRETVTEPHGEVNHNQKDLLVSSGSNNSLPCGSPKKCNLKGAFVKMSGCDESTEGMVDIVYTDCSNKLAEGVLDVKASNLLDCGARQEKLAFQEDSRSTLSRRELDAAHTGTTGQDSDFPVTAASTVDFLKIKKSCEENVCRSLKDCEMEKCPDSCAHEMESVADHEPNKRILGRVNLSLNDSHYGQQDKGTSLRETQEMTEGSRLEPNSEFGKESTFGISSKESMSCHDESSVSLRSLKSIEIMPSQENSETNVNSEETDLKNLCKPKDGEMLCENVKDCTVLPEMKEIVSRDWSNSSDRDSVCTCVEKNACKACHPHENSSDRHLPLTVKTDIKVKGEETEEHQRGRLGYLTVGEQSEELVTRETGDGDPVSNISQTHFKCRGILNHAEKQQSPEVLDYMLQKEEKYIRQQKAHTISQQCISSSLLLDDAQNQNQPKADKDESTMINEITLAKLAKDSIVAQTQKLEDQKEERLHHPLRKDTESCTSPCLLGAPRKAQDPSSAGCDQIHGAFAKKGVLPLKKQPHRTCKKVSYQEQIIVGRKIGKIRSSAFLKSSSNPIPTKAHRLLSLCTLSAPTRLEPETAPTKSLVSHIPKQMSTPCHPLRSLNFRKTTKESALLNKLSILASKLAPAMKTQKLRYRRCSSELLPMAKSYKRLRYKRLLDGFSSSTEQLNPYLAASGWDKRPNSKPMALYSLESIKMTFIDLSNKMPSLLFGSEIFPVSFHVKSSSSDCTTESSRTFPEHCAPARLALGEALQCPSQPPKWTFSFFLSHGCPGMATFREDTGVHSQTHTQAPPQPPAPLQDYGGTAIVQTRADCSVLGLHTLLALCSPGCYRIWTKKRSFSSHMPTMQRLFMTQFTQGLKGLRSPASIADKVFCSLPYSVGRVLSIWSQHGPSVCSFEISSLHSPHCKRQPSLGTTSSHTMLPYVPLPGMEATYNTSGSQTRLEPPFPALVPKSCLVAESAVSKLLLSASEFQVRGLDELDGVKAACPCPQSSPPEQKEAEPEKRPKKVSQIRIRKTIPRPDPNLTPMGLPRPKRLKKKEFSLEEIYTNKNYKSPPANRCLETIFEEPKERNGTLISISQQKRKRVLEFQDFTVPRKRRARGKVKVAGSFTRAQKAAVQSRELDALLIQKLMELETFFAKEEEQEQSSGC

B1: HA-tagged BAP1, Q92560 1-729 (protein)
chain: MNKGWLELESDPGLFTLLVEDFGVKGVQVEEIYDLQSKCQGPVYGFIFLFKWIEERRSRRKVSTLVDDTSVIDDDIVNNMFFAHQLIPNSCATHALLSVLLNCSSVDLGPTLSRMKDFTKGFSPESKGYAIGNAPELAKAHNSHARPEPRHLPEKQNGLSAVRTMEAFHFVSYVPITGRLFELDGLKVYPIDHGPWGEDEEWTDKARRVIMERIGLATAGEPYHDIRFNLMAVVPDRRIKYEARLHVLKVNRQTVLEALQQLIRVTQPELIQTHKSQESQLPEESKSASNKSPLVLEANRAPAASEGNHTDGAEEAAGSCAQAPSHSPPNKPKLVVKPPGSSLNGVHPNPTPIVQRLPAFLDNHNYAKSPMQEEEDLAAGVGRSRVPVRPPQQYSDDEDDYEDDEEDDVQNTNSALRYKGKGTGKPGALSGSADGQLSVLQPNTINVLAEKLKESQKDLSIPLSIKTSSGAGSPAVAVPTHSQPSPTPSNESTDTASEIGSAFNSPLRSPIRSANPTRPSSPVTSHISKVLFGEDDSLLRVDCIRYNRAVRDLGPVISTGLLHLAEDGVLSPLALTEGGKGSSPSIRPIQGSQGSSSPVEKEVVEATDSREKTGMVRPGEPLSGEKYSPKELLALLKCVEAEIANYEACLKEEVEKRKKFKIDDQRRTHNYDEFICTFISMLAQEGMLANLVEQNISVRRRQGVSIGRLHKQRKPDRRKRSRPYKAKRQ
B1 was tested, and the binding was “binds”.

— publication doi:10.1101/2023.04.29.538809
